Data published in patent publication US8652838B2, “Platensimycin biosynthetic gene cluster of Streptomyces platensis” (Wisconsin Alumni Research Foundation, priority 2007, dated 2014).
Some entries share one result that the patent states for a list of compounds.

Test system: S. platensis MA7327
Assay: antibiotic sensitivity of S. platensis MA7327
Format: cell-based, Streptomyces platensis
Text: The inventors have developed an efficient genetic system for in vivo manipulation of PTM/PTN biosynthesis in S. platensis MA7327 via E. coli-S. platensis conjugation. […] Although S. platensis protoplasts can be readily prepared and regenerated with high frequency, introduction of either replicative or integrative plasmid into S. platensis via protoplast-mediated transformation has not been successful (Kieser et al., 2000).

**Q.** CCn1cc(C(=O)O)c(=O)c2ccc(C)nc21 [nalidixic acid] was tested. Which “concentration at which no growth inhibition observed” value did it give?
**A.** Its value is > 100 µg/mL.
